In PubChem BioAssay AID248 (DTP/NCI, 2004):
The list shows only some results of the screen, not a fair sample: it gathers tests that were run many times, whatever their T/C, doses with no T/C, and many T/C values between a quarter and a half above the control. Further doses and runs are listed elsewhere. T/C is the treated group as % of the vehicle group. Some doses have a count of surviving animals in place of a T/C: the source holds a T/C of zero for them, seemingly a mark for toxic or unscored doses. Some survivor counts are full or nearly so, which does not show that the dose was tolerated: the source hardly ever lists a survival T/C far under the control, and the zero likely stands for such cases as well. Counts of survivors are from the toxicity check (mostly the fifth day) where no day follows; animals may have died later. Schedules are NCI's codes, read here as Q, the interval in days (D) or hours (H), X, the number of doses. Some schedules carry Z or #; the key to these is not given. Where survival is the endpoint, the PubChem record calls one and a half times the control and up active, and a quarter to a half above the control has no call in these data; cut-offs in other NCI protocols can differ. Marks such as (2×) count equal records among those shown. Some doses were run more than once; the results are listed from low to high. Some T/C values are followed by the survivors on the day toxicity was checked, most often the fifth; without a count, all were alive then.

System: L1210 leukemia ip in BDF1 mice, survival T/C
Assay: NCI In Vivo Anticancer Drug Screen. Data for tumor model L1210 Leukemia (intraperitoneal) in B6D2F1 (BDF1) mice
Details: T/C endpoint: mean survival time, higher T/C = longer survival; for T/C: schedule: Q06HX008 (ip), vehicle: steroid suspending solution

O=c1[nH]cnc2c1ncn2C1OC(CO)C(O)C1O (centres undefined)
T/C (dose: 125.0 mg/kg/injection, evaluated on day 5): 102 % of control
T/C (dose: 125.0 mg/kg/injection, evaluated on day 6): 95 % of control
T/C (dose: 125.0 mg/kg/injection, evaluated on day 19): 102 % of control
T/C (dose: 125.0 mg/kg/injection, evaluated on day 60): 95 % of control (2×)
T/C (dose: 250.0 mg/kg/injection, evaluated on day 5): 102 % of control
T/C (dose: 250.0 mg/kg/injection, evaluated on day 6): 103 % of control
T/C (dose: 250.0 mg/kg/injection, evaluated on day 19): 102 % of control
T/C (dose: 250.0 mg/kg/injection, evaluated on day 60): 101 and 103 % of control
T/C (dose: 500.0 mg/kg/injection, evaluated on day 5): 102 % of control
T/C (dose: 500.0 mg/kg/injection, evaluated on day 6): 101 % of control
T/C (dose: 500.0 mg/kg/injection, evaluated on day 19): 102 % of control
T/C (dose: 500.0 mg/kg/injection, evaluated on day 60): 96 and 101 % of control
T/C (dose: 1000.0 mg/kg/injection, evaluated on day 5): 97 % of control
T/C (dose: 1000.0 mg/kg/injection, evaluated on day 6): 106 % of control
T/C (dose: 1000.0 mg/kg/injection, evaluated on day 19): 97 % of control [7 of 8 alive]
T/C (dose: 1000.0 mg/kg/injection, evaluated on day 60): 93 and 106 % of control

NC(=O)c1ccccc1Nc1ccc([N+](=O)[O-])cc1[N+](=O)[O-]
survivor count (dose: 70.0 mg/kg/injection, schedule: Q01DX Z (ip), vehicle: carboxymethylcellulose (CMC)): 6 of 6
survivor count (dose: 100.0 mg/kg/injection, schedule: Q01DX Z (ip), vehicle: carboxymethylcellulose (CMC)): 4 of 6

Cc1cc(C)c([S-])c(C)c1.[Cu+]
survivor count (dose: 37.5 mg/kg/injection, schedule: Q01DX001 (ip), vehicle: saline): 6 of 6
survivor count (dose: 75.0 mg/kg/injection, schedule: Q01DX001 (ip), vehicle: saline): 3 of 6
survivor count (dose: 100.0 mg/kg/injection, schedule: Q01DX001 (ip), vehicle: saline): 0 of 6
survivor count (dose: 200.0 mg/kg/injection, schedule: Q01DX001 (ip), vehicle: saline): 0 of 6
survivor count (dose: 400.0 mg/kg/injection, schedule: Q01DX001 (ip), vehicle: saline): 0 of 6

CCNC(=O)c1cc(NC(=O)c2ccc(C(=O)Nc3cc(C(=O)NCC)cc(C4=NCCN4)c3)cc2)cc(C2=NCCN2)c1
survivor count (dose: 114.0 mg/kg/injection, schedule: Q01DX015 (ip), vehicle: water): 0 of 6

CCCC1(CN2c3ccccc3Sc3ccc(Cl)cc32)CCN(CC)C1 (centres undefined)
survivor count (dose: 200.0 mg/kg/injection, schedule: Q04DX003 (ip), vehicle: saline): 4 of 6
survivor count (dose: 400.0 mg/kg/injection, schedule: Q04DX003 (ip), vehicle: saline): 0 of 6

C[CH2][Ge]([CH2]C)([CH2]C)[CH2]CCO
survivor count (dose: 400.0 mg/kg/injection, schedule: Q04DX002 (ip), vehicle: saline with Tween-80): 0 of 3

O=C(O)C1C(c2ccccc2)=C(c2ccccc2)c2ccccc21 (centres undefined)
survivor count (dose: 200.0 mg/kg/injection, schedule: Q04DX003 (ip), vehicle: saline with Tween-80): 3 of 6
survivor count (dose: 400.0 mg/kg/injection, schedule: Q04DX003 (ip), vehicle: saline with Tween-80): 0 of 6
